According to PMC3365040:
These are yes or no findings as the source states them, for the method shown. In cells and extracts the contact can be indirect. Some results given as binding are weak or reduced against the parent protein; the word gives no strength.

The chains behind the UniProt entries cited, without tags or fusion partners. Where a name states a change or a piece, a line headed by the entry shows the natural chain unless it says otherwise.
UniProt P19338: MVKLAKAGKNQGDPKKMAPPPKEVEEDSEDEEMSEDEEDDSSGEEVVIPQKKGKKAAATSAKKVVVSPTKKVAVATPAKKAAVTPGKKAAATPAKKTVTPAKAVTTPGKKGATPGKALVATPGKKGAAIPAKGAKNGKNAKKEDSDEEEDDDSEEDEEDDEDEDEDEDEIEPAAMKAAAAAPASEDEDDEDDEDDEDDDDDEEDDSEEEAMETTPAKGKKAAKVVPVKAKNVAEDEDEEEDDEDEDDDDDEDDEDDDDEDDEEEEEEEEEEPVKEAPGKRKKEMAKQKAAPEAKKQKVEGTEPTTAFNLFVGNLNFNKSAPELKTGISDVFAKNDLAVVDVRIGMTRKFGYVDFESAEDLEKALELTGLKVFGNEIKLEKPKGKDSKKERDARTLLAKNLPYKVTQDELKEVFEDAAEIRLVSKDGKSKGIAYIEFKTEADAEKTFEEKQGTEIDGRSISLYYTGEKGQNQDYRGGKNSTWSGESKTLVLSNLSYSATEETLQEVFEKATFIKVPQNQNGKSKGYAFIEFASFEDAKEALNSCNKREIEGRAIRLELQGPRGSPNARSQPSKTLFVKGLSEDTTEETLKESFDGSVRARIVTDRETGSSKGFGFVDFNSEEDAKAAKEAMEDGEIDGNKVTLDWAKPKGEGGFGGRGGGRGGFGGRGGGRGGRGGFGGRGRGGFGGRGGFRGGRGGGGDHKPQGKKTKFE

Molecular target: Nucleolin Protein C23 (endogenous) (human (endogenous in MCF-7 and T47D)) (UniProt P19338)
Assay: co-IP; endogenous proteins; nuclear extract of MCF-7 cells; IP with COUP-TFII polyclonal antibody or nucleolin monoclonal antibody on magnetic beads in RIPA buffer, 4 h at 4°C; western blot; untreated cells, also cells treated with 10 µM CRO or AS1411 for 24 h, or with EtOH, 10 nM E2 or 100 nM 4-OHT for 1 h

binding: binds
B1: Endogenous COUP-TFII (protein, UniProt P24468 1-414)
chain: MAMVVSTWRDPQDEVPGSQGSQASQAPPVPGPPPGAPHTPQTPGQGGPASTPAQTAAGGQGGPGGPGSDKQQQQQHIECVVCGDKSSGKHYGQFTCEGCKSFFKRSVRRNLSYTCRANRNCPIDQHHRNQCQYCRLKKCLKVGMRREAVQRGRMPPTQPTHGQFALTNGDPLNCHSYLSGYISLLLRAEPYPTSRFGSQCMQPNNIMGIENICELAARMLFSAVEWARNIPFFPDLQITDQVALLRLTWSELFVLNAAQCSMPLHVAPLLAAAGLHASPMSADRVVAFMDHIRIFQEQVEKLKALHVDSAEYSCLKAIVLFTSDACGLSDVAHVESLQEKSQCALEEYVRSQYPNQPTRFGKLLLRLPSLRTVSSSVIEQLFFVRLVGKTPIETLIRDMLLSGSSFNWPYMAIQ
